The target of assay [1] is Lysine acetyltransferase 5 (KAT5), endogenous (human (endogenous in MHCC-97H)). Description: co-IP; endogenous OGT and KAT5 in MHCC-97H cells; lysis buffer 50 mM Tris-HCl pH 7.4, 1 mM EDTA, 150 mM NaCl, 1% Triton X-100; antibody overnight at 4 °C, protein A/G agarose beads.
The target in assay [2] is Flag-tagged truncated KAT5, Chr 1-209aa. The experiment in a line: co-IP; HA-OGT and Flag-tagged full-length or truncated KAT5 expressed in MHCC-97H cells; lysis buffer 50 mM Tris-HCl pH 7.4, 1 mM EDTA, 150 mM NaCl, 1% Triton X-100; antibody overnight at 4 °C, protein A/G agarose beads.
In assay [3] the target is Flag-tagged full-length KAT5 (WT). Described as above.
The target of assay [4] is Flag-tagged truncated KAT5, Zn 76-315aa. The assay is described as above.

These are yes or no findings as the source states them, for the method shown. In cells and extracts the contact can be indirect. A result given as binding can be weak or reduced; the word gives no strength. For some of these results: Tags and fused reporters may be left off the sequences shown.

B1: O-GlcNAc transferase (OGT), endogenous (enzyme, UniProt O15294 1-1046)
chain: MASSVGNVADSTEPTKRMLSFQGLAELAHREYQAGDFEAAERHCMQLWRQEPDNTGVLLLLSSIHFQCRRLDRSAHFSTLAIKQNPLLAEAYSNLGNVYKERGQLQEAIEHYRHALRLKPDFIDGYINLAAALVAAGDMEGAVQAYVSALQYNPDLYCVRSDLGNLLKALGRLEEAKACYLKAIETQPNFAVAWSNLGCVFNAQGEIWLAIHHFEKAVTLDPNFLDAYINLGNVLKEARIFDRAVAAYLRALSLSPNHAVVHGNLACVYYEQGLIDLAIDTYRRAIELQPHFPDAYCNLANALKEKGSVAEAEDCYNTALRLCPTHADSLNNLANIKREQGNIEEAVRLYRKALEVFPEFAAAHSNLASVLQQQGKLQEALMHYKEAIRISPTFADAYSNMGNTLKEMQDVQGALQCYTRAIQINPAFADAHSNLASIHKDSGNIPEAIASYRTALKLKPDFPDAYCNLAHCLQIVCDWTDYDERMKKLVSIVADQLEKNRLPSVHPHHSMLYPLSHGFRKAIAERHGNLCLDKINVLHKPPYEHPKDLKLSDGRLRVGYVSSDFGNHPTSHLMQSIPGMHNPDKFEVFCYALSPDDGTNFRVKVMAEANHFIDLSQIPCNGKAADRIHQDGIHILVNMNGYTKGARNELFALRPAPIQAMWLGYPGTSGALFMDYIITDQETSPAEVAEQYSEKLAYMPHTFFIGDHANMFPHLKKKAVIDFKSNGHIYDNRIVLNGIDLKAFLDSLPDVKIVKMKCPDGGDNADSSNTALNMPVIPMNTIAEAVIEMINRGQIQITINGFSISNGLATTQINNKAATGEEVPRTIIVTTRSQYGLPEDAIVYCNFNQLYKIDPSTLQMWANILKRVPNSVLWLLRFPAVGEPNIQQYAQNMGLPQNRIIFSPVAPKEEHVRRGQLADVCLDTPLCNGHTTGMDVLWAGTPMVTMPGETLASRVAASQLTCLGCLELIAKNRQEYEDIAVKLGTDLEYLKKVRGKVWKQRISSPLFNTKQYTMELERLYLQMWEHYAAGNKPDHMIKPVEVTESA
For B1, the binding entry in assay [1] is reported as “binds”.

B2: HA-OGT (enzyme, UniProt O15294 1-1046)
chain: B1 chain
On to B2, for which the binding entry in assay [2], in assay [3] and in assay [4] was “binds” throughout.

(Values after publication PMC8677624.)
